# Hit rate of the full screen: of about 340,000 compounds, about 6,200 (1.8%) were called active. Inconclusive results, whose numbers are uncertain, are shown with a selection of clear calls. The call rests on the fitted dose curve; in most records, active means well fitted activation curve with a large enough effect; inconclusive means small, poorly fitted or top-dose-only effect; inactive means no such curve, though single readings can be large or run the other way. Where the call is inconclusive, the potency comes from a doubtful curve fit.
# Assay: A quantitative high throughput screen for small molecules that induce DNA re-replication in SW480 colon adenocarcinoma cells. Further: nearly all actives have a fitted effect of over 55% in size. On re-replication activation: % of control where 0% means no effect.
# Conditions: Hoechst DNA content imaging, 48 h; re-replication activation: at 46.1 µM (top of the series) unless noted
# In short: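 Per well, 250 cells were exposed to pinned compound for 48 hr. Nuclear DNA was visualised with Hoechst (40 min, 37 C) and total object intensity recorded by fluorescence scanning.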
# Potency means the concentration at half of the fitted maximal effect.
Structure (SMILES),Potency,re-replication activation
C#CCNC(=O)C1=C[C@H](c2ccc(C#C)cc2)C[C@H](OCc2ccc(CO)cc2)O1,"inconclusive: 5.17 µM [activator, full curve, poor fit]",–
Cc1c(C(O)CN2CCN(Cc3ccc4c(c3)OCO4)CC2)c2ccccc2n1C (stereo unspecified),"inconclusive: 29.1 µM [activator, single point]",–
Cc1ccc2c(c1)N(CC(=O)N(Cc1ccc3c(c1)OCO3)CC1CCCO1)C(=O)C(C)O2 (stereo unspecified),inactive,–
CC(Sc1ccc([N+](=O)[O-])cn1)C(=O)Nc1nccs1 (stereo unspecified),"inconclusive: 29.1 µM [activator, single point]",–
COc1cc2nc(-c3ccccc3C)oc(=O)c2cc1OC,"inconclusive: 6.51 µM [activator, partial curve, poor fit]",–
CCOC(=O)c1cc(C(=O)Nc2ccc(C)c(F)c2)nn1C,inactive,–
COc1ccc(S(=O)(=O)N2CCc3ccccc32)cc1NC(C)=O,"inconclusive: 23.1 µM [activator, single point]",–
Oc1cccc(C(O)CNCc2ccc(OCc3ccc(Cl)cc3Cl)cc2)c1 (stereo unspecified),"inconclusive: 29.1 µM [activator, single point]",–
CCOc1cc(/C=C/C(=O)O)ccc1OCCOc1ccc(F)cc1,"inconclusive: 29.1 µM [activator, single point]",–
CCCCN(Cc1cc2cc(OC)ccc2[nH]c1=O)S(=O)(=O)c1ccc(C)cc1,"inconclusive: 29.1 µM [activator, single point]",–
COc1cccc(CN2CCNC(=O)C2CC(=O)NC2CCCCCCC2)c1 (stereo unspecified),inactive,–
CCN1CCN(Cc2ccc(NC(=O)c3cc(NC(=O)c4cncc(-c5cccs5)c4)cc(OC)c3)cc2C(F)(F)F)CC1,"inconclusive: 0.13 µM [activator, full curve, poor fit]",–
COc1ccc(C(=O)NCCS(=O)(=O)N(C)C2CCCCC2)cc1,inactive,–
O=C(COc1cccc(C(F)(F)F)c1)Nc1ccc(S(=O)(=O)N2CCCCC2)cc1,inactive,–
COCCCNC(=O)C[C@H]1C[C@H](C(=O)N2CCCCC2)[C@@]2(CCc3ccccc3)c3[nH]c4cc(-c5ccco5)ccc4c3CCN2C1=O,"inconclusive: 20.6 µM [activator, partial curve, poor fit]",–
O=C(CCCN1C(=O)/C(=C/c2ccccc2Cl)SC1=S)Nc1cccnc1,"inconclusive: 29.1 µM [activator, single point]",–
Cc1onc(NC(=O)NC(=O)c2ccccc2F)c1Br,inactive,–
Oc1ccc(/C=N/Nc2ccc(C(F)(F)F)cn2)cc1O,"inconclusive: 3.66 µM [activator, partial curve, poor fit]",–
CC(=O)OCC(=O)C1(O)CCC2C3CC(C)C4=CC(=O)C=CC4(C)C3(F)C(O)CC21C (stereo unspecified),inactive,–
CCn1c(CSCc2ccc(Cl)cc2)n[nH]c1=S,"inconclusive: 20.6 µM [activator, partial curve, poor fit]",–
O=C(CN1CCCC1)N1CCCc2c1c(=O)oc1ccc(OCc3ccccc3)cc21,"inconclusive: 29.1 µM [activator, single point]",–

# Complete entries from above. Values in the order: Potency | re-replication activation
# `CCN1CCN(Cc2ccc(NC(=O)c3cc(NC(=O)c4cncc(-c5cccs5)c4)cc(OC)c3)cc2C(F)(F)F)CC1` in the list: inconclusive: 0.13 µM [activator, full curve, poor fit] | –
# `COc1ccc(C(=O)NCCS(=O)(=O)N(C)C2CCCCC2)cc1` in the list: inactive | –

# (further entries)

Structure (SMILES),Potency,re-replication activation
CN(C)C(=O)c1ccc(N=Nc2c(O)c3ccccc3[nH]c2=O)cc1,–,inconclusive: -33.6% [activator]
CC(C)C(=O)N(Cc1cc(=O)[nH]c2ccccc12)c1ccccc1,"inconclusive: 0.103 µM [activator, full curve, poor fit]",–
COc1cc(C(=O)Nc2cc(C)nn2-c2ccccc2)cc(OC)c1OC,"inconclusive: 0.398 µM [activator, full curve, poor fit]",–
CCOC(=O)c1cc2c(=O)n3ccccc3nc2n(CCOC)c1=NC(=O)c1c(-c2c(F)cccc2Cl)noc1C,"inconclusive: 20.6 µM [activator, single point]",–
CCCCOc1ccc(NC(=S)Nc2cc(C)nc(SCCCC)n2)cc1,inactive,–
Brc1ccc(C2Nc3cccc4cccc(c34)N2)o1,inactive,–
COc1ccc(N(C(=O)c2snc(C(N)=O)c2N)C(C(=O)NC2CCCC2)c2cc(OC)ccc2OC)c(OC)c1 (stereo unspecified),"inconclusive: 29.1 µM [activator, partial curve, poor fit]",–
CCc1ccccc1NC(=S)N=Nc1c(O)n(C)c2ccc(S(=O)(=O)N3CCOCC3)cc12,"inconclusive: 20.6 µM [activator, partial curve, poor fit]",–
COCc1cc(C)nc(OCC(=O)N/N=C/c2ccc(C)cc2)c1C#N,inactive,–
COc1ccc(-c2c(C#Cc3ccsc3)c3cc(-c4ccc5cc[nH]c5c4)ccc3n2C)cc1,"inconclusive: 29.1 µM [activator, single point]",–
Cc1c(C(=O)NCCC2=CCCCC2)oc2ccc(S(=O)(=O)N3CCOCC3)cc12,"inconclusive: 23.1 µM [activator, partial curve, poor fit]",–
CCCCN(Cc1ccco1)C(=O)c1cc2c(=O)[nH]c3ccc(C)cc3c2s1,"inconclusive: 23.1 µM [activator, single point]",–
C=CCc1c(C)nc(C)nc1N/N=C/c1ccccc1O,active: 11.6 µM,–
Cc1ccc(C)c(-n2nnnc2SCC(=O)NCC2CCCO2)c1 (stereo unspecified),"inconclusive: 6.51 µM [activator, single point]",–
Cc1nc2ccn(Cc3ccccc3)c(=O)c2cc1C(=O)N1CCN(c2ccccc2)CC1,inactive,–
COc1ccc(CNCCS(=O)(=O)NC2CCCCC2)cc1,"inconclusive: 18.4 µM [activator, single point]",–
Cc1ccc([N+](=O)[O-])cc1-c1[nH]c(-c2ccc(O)c(O)c2)nc1-c1ccccc1,"inconclusive: 23.1 µM [activator, single point]",–
COc1ccc(O)c(/C=N/NC(=S)Nc2cccc(S(=O)(=O)N(C)C)c2)c1,"inconclusive: 1.84 µM [activator, partial curve, poor fit]",–
Cc1cc(NC(=O)c2cc(-c3cccc(OCC(C)C)c3)nc3ccccc23)no1,inactive,–
CCN(CC)S(=O)(=O)c1ccc(N/N=C(\C)c2ccc(OC)cc2O)nc1,"inconclusive: 25.9 µM [activator, single point]",–
